# Experimental data from the supplement of paper PMC9744312.
# Counter-ions that a name gives are not always drawn. The list shows a part of the results. This is a noisy data set.
# Test system: Peyronie's disease tunica albuginea primary fibroblasts
# Experiment: inhibition of TGF-beta1-induced alpha-SMA expression (myofibroblast transformation), relative to TGF-beta1-only and untreated controls; higher = stronger inhibition of myofibroblast transformation
# Details: 10 µM; TGF-beta1 10 ng/mL; 72 h
row,SMILES,inhibition of TGF-beta1-induced alpha-SMA expression
1,NC(=O)CN1CC(O)CC1=O (stereo not given) [Oxiracetam],4.67%
2,C[CH2][Hg][S]c1ccccc1C(=O)[O-].[Na+] [Thimerosal],> 100%
3,O=C(O[C@H]1C[C@H]2CC[C@@H](C1)[N+]21CCCC1)C(O)(c1ccccc1)c1ccccc1 [Trospium chloride],9.45%
4,COc1ccc(C(=O)N2CCCC2=O)cc1 [Aniracetam],22%
5,CC[C@@H](C(N)=O)N1CCCC1=O [Levetiracetam],10.4%
6,O=C(O)CCCc1ccc(N(CCCl)CCCl)cc1 [Chloroambucil],-24.5%
7,Nc1ccncc1 [4-Aminopyridine],11.7%
8,CCC[C@@H]1CC(=O)N([C@@H](CC)C(N)=O)C1 [Brivaracetam],-8.96%
9,Cc1ncc(CNC(=O)N(CCCl)N=O)c(N)n1 [Nimustine Hydrochloride],8.31%
10,CCCN1C[C@H](CSC)C[C@@H]2c3cccc4[nH]cc(c34)C[C@H]21 [Pergolide Mesylate],-1.83%
11,CC(=O)OC1CN2CCC1CC2 (stereo not given) [Aceclidine HCl],11.6%
12,C[N+](C)(C)CCCCCCCCCC[N+](C)(C)C [Decamethonium Bromide],7.66%
13,CN1c2ccccc2C(NCCCCCCC(=O)O)c2ccc(Cl)cc2S1(=O)=O (stereo not given) [Tianeptine],14.8%
14,CN1c2ccccc2C(NCCCCCCC(=O)O)c2ccc(Cl)cc2S1(=O)=O (stereo not given) [Tianeptine sodium],4.44%
15,NCCc1cc(O)c(O)cc1O [Oxidopamine (hydrobromide)],2.85%
16,Nc1nc(N)nc(NC2CC2)n1 [Cyromazine],11.1%
17,CN1[C@@H]2CC[C@H]1C[C@@H](OC(=O)[C@H](CO)c1ccccc1)C2 [Hyoscyamine],39.4%
18,O=[N+]([O-])O[C@@H]1CO[C@H]2[C@@H]1OC[C@@H]2O [Isosorbide Mononitrate],22.8%
19,N[C@@H](Cc1ccc(N(CCCl)CCCl)cc1)C(=O)O [Melphalan],12.6%
20,CCCCCCC(=O)O[C@H]1CC[C@H]2[C@@H]3CCC4=CC(=O)CC[C@]4(C)[C@H]3CC[C@]12C [Testosterone Enanthate],31%
21,CC(C)N(CCC(C(N)=O)(c1ccccc1)c1ccccn1)C(C)C (stereo not given) [Disopyramide],-13.8%
22,CC(C)N(CCC(C(N)=O)(c1ccccc1)c1ccccn1)C(C)C (stereo not given) [Disopyramide Phosphate],16.2%
23,N=C(N)NN [Aminoguanidine hydrochloride],-0.985%
24,COc1ccc(CN2CCNCC2)c(OC)c1OC [Trimetazidine dihydrochloride],-31.4%
25,CC[C@H]1CN2CC[C@H]1C[C@@H]2[C@@H](O)c1ccnc2ccc(OC)cc12 [Hydroquinidine],28.1%

# Taken from above:
# Value of CN1[C@@H]2CC[C@H]1C[C@@H](OC(=O)[C@H](CO)c1ccccc1)C2 [Hyoscyamine] under inhibition of TGF-beta1-induced alpha-SMA expression: 39.4%
# Value of O=C(O)CCCc1ccc(N(CCCl)CCCl)cc1 [Chloroambucil] under inhibition of TGF-beta1-induced alpha-SMA expression: -24.5%
